# Experimental data reported in publication PMC12040169 (PLOS Biology, 2025).
# Some of the results follow.
# Tested on: T1, CTL2-GFP (C. trachomatis L2/434/Bu, GFP-expressing)
# T1 construct: L2/434/Bu, GFP-expressing
# Parameters: species or system HeLa; Intracellular C. trachomatis growth in HeLa cells, bulk GFP fluorescence relative to DMSO
# Settings: bulk GFP, single well; 28.5 h, 10 µM; inhibitor
row,Structure (SMILES),% of control remaining [%]
1,CC(Oc1ccccc1)C(=O)NCCN1CCOCC1 (stereo not shown) [CBK263812],103.292
2,Cc1ccc(C(=O)C(OC(=O)CN2C(=O)c3cccc([N+](=O)[O-])c3C2=O)c2ccccc2)cc1C (stereo not shown) [CBK265519],117.461
3,COCC(=O)N1C[C@@H](c2ccc(F)c(F)c2)[C@@]2(CCCC(=O)N2)C1 [CBK283358],91.0862
4,O=C(CC(Nc1ccc2ccccc2c1)c1ccncc1)c1ccc(Br)cc1 (stereo not shown) [CBK262209],88.702
5,CC(C)NC(=O)Cn1c(=O)n(Cc2cccs2)c2ncccc21 [CBK283900],134.25
6,CC(NC(=O)C1CCN(Cc2nccs2)CC1)c1ccc(F)cc1 (stereo not shown) [CBK148056],161.554
7,CN(C)c1ccc(Nc2cc(-c3ccc(OCc4ccccc4)cc3)ncn2)cc1 [CBK090941],94.2118
8,O=C(Nc1ccccc1[N+](=O)[O-])c1cc(S(=O)(=O)NCc2ccco2)ccc1Cl [CBK264557],108.429
9,COc1ccc(CCNC(=O)N2CCC(C(=O)O)CC2)cc1 [CBK156073],66.6676
10,CC(CCCC(C)(C)O)NCCO (stereo not shown) [CBK262340],85.1771
11,COc1cccc2ncn(CCNS(C)(=O)=O)c(=O)c12 [CBK306583],159.295
12,CC(C)(CNC(=O)c1ccc(=O)n(CC(=O)Nc2ccc(F)cc2)c1)c1cccc(F)c1 [CBK285955],130.579
13,O=C(CCN1CCN(CCO)CC1)Nc1ccc(Cl)cc1 [CBK033787],105.42
14,c1ccc(-c2cnc3c(N4CCCC4)nc(-c4cccnc4)cn23)cc1 [CBK092245],110.682
15,O=C(CSC1=NC(=O)C(c2ccccc2)C(=O)N1)NC1CCCCC1 (stereo not shown) [CBK263804],124.861
16,COc1ccc2c3c1CCC(C)(C)C3COC2CCN1CCN(c2ccc(F)cc2)CC1 (stereo not shown) [CBK024047C],97.0449
17,O=C(c1ccncc1)N1C2CCC1CC(c1ccc(F)cc1)C2 (stereo not shown) [CBK283763],111.286
18,Cc1ccc(-c2nccnc2OCCc2c[nH]c3ccccc23)cc1C [CBK106850],89.1631
19,O=S(=O)(NCc1ccccc1)c1cccc2nonc12 [CBK265692],120.771
20,CCC(CC)C(=O)N1CC[C@H]2NC(=O)N(Cc3ccccc3)C(=O)[C@H]21 [CBK289291],114.226
21,O=C(O)c1cn(C2CC2)c2cc(N3CCN(C(=O)Cc4ccsc4)CC3)c(F)cc2c1=O [CBK297142],34.2736
22,CS(=O)(=O)Nc1cc(-c2noc([C@@H]3CCCN3Cc3ccccn3)n2)ccn1 [CBK288885],134.415

# Looked up above.
# In % of control remaining [%], COCC(=O)N1C[C@@H](c2ccc(F)c(F)c2)[C@@]2(CCCC(=O)N2)C1 [CBK283358] is listed with 91.0862
# In % of control remaining [%], O=C(O)c1cn(C2CC2)c2cc(N3CCN(C(=O)Cc4ccsc4)CC3)c(F)cc2c1=O [CBK297142] is listed with 34.2736
